Measured values as given in publication PMC12374588.
No constants are given. Whether binding was seen depends on the method and setting. In cells and extracts the contact can be indirect. Binding calls can cover weak binding; strength is not graded here.

Target: T1, CREPT, endogenous (human (endogenous in SK-LU-1, H441, HEK-293T)) (UniProt Q9NQG5)
T1 sequence: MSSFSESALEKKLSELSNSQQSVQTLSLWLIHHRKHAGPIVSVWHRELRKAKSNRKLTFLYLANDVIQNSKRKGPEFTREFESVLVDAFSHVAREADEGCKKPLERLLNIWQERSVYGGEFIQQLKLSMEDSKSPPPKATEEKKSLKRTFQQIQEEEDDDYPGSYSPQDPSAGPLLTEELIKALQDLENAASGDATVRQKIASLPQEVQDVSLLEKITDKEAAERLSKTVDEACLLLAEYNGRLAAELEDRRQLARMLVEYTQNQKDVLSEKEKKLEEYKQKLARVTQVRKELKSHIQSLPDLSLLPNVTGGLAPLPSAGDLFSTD
Assay: co-IP; endogenous CREPT and ERK in HEK-293T under EGF stimulation and in H441 cells

## ERK (extracellular signal-regulated kinase), endogenous (human (endogenous in HEK-293T, H441)) (enzyme)
  binding: binds
